Source: patent publication US20220372111A1
These are yes or no findings as the source states them, for the method shown. Some binding calls cover weakened binding; strength is not graded here. Each block holds one substance with its values, some of them ahead of it.

Protein sequences, listed by entry. Tags and fused reporters are not part of them. Residues count along the entry.
UniProt P08246, residues 30-247: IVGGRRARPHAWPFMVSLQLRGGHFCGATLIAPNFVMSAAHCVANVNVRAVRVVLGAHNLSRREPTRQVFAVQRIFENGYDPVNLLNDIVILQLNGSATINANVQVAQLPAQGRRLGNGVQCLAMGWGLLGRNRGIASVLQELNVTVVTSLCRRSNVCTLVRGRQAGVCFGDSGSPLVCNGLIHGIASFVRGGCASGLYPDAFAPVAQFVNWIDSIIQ

Assays:
[1] = molecular target: neutrophil elastase (purified HNE) (human) (UniProt P08246); assay: inhibition of HNE activity, ratio [MDI-1005]/[HNE] 0 to 20, buffer and DNA NETs [panel MDI-1005]
[2] = molecular target: neutrophil elastase (purified HNE) (human) (UniProt P08246); assay: inhibition of HNE activity, ratio [MDI-1006]/[HNE] 0 to 20, buffer and DNA NETs [panel MDI-1006]
[3] = molecular target: neutrophil elastase (purified HNE) (human) (UniProt P08246); assay: inhibition of HNE activity, ratio [MDI-1007]/[HNE] 0 to 20, buffer and DNA NETs [panel MDI-1007]
[4] = molecular target: neutrophil elastase (purified HNE) (human) (UniProt P08246); assay: inhibition of HNE activity, ratio [MDI-1008]/[HNE] 0 to 20, buffer and DNA NETs [panel MDI-1008]
[5] = molecular target: neutrophil elastase (purified HNE) (human) (UniProt P08246); assay: inhibition of HNE activity, ratio [MDI-1009]/[HNE] 0 to 20, buffer and DNA NETs [panel MDI-1009]
[6] = molecular target: neutrophil elastase (purified HNE) (human) (UniProt P08246); assay: inhibition of HNE activity, ratio [MDI-1010]/[HNE] 0 to 20, buffer and DNA NETs [panel MDI-1010]

Substance: MDI-1007 (from UniProt P05121 24-402)
binding [3]: binds

Substance: MDI-1009 (from UniProt P05121 24-402)
binding [5]: binds

Substance: MDI-1010 (from UniProt P05121 24-402)
binding [6]: binds

Second part, the substance after the results:

binding [1]: binds
Substance: MDI-1005 (from UniProt P05121 24-402)

binding [2]: binds
Substance: MDI-1006 (from UniProt P05121 24-402)

binding [4]: binds
Substance: MDI-1008 (from UniProt P05121 24-402)
